From PubChem BioAssay AID1347075 (National Center for Advancing Translational Sciences (NCATS), 2019)
About 5,500 (1.4%) of roughly 400,000 compounds were called active. The shares of active, inactive and inconclusive entries below differ from those in the screen. Calls follow the shape of the dose curve; as a rule, active = well fitted cell-killing curve with a large enough effect; inconclusive = small, poorly fitted or top-dose-only effect, or effect the other way; inactive = flat fitted curve, though single readings scatter. Where the call is inconclusive, the potency comes from a doubtful curve fit.

Test: qHTS assay for MDR1-selective chemotherapeutics: Primary screen using the parental adenocarcinoma cell KB-3-1; also: nearly all actives have a fitted effect of over 60% in size
Details: KB-3-1 viability, CellTiter-Glo ATP luminescence, 72 h; activity change, negative = cytotoxic: at 46.1 µM (top of the series)
Procedure, shortened: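 KB-3-1 cells, DMEM (no phenol red) + 10% FBS; compound by pin transfer, 72 h, 37 °C. Readout: CellTiter-Glo luminescence after 10 min. Data normalized, curve-fitted.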
% is scaled to controls: 0 for no effect and ±100 for the full control effect; potency is read from the fitted curve at half-maximal effect.

Q: With `CC(C)CC(=O)NC(=S)NCCc1ccccc1` as the compound, how does the Potency read?
A: inactive

Q: With `CCOc1ccc(CN(C(=O)c2oc3cc(C)ccc3c2C)C2CCS(=O)(=O)C2)cc1` (centres undefined) as the compound, how does the Potency read?
A: inconclusive: 29.1 µM [cytotoxic, single point]

Q: Which Potency does the source give for `Cc1ccc(C)c(SCC(=O)OCC(=O)Nc2ncc(C(F)(F)F)cc2Cl)c1` here?
A: inactive

Q: Which Potency does the source give for `CCCCC(=O)NC1(C(F)(F)F)NC(=O)N(Cc2ccccc2)C1=O` (centres undefined) here?
A: inactive

Q: For `CCOc1ccc(NC(=O)N2CC=C(c3c[nH]c4ccccc34)CC2)cc1`, which Potency is on record?
A: active: 23.1 µM

Q: Which Potency does the source give for `COC(=O)/C(=C(O)\C=C\c1ccccc1[N+](=O)[O-])c1nc2ccccc2[nH]1` here?
A: inactive

Q: For `COc1ccc(NC(=O)NCCc2c[nH]c3ccccc23)c(OC)c1`, which Potency is on record?
A: inconclusive: 18.4 µM [rising, single point]

Q: Which Potency does the source give for `O=C(Nc1cccc(C(F)(F)F)c1)c1ccc2sc([C@@H]3O[C@H](CO)[C@H](O)[C@H](O)[C@H]3O)nc2c1` here?
A: inactive

Q: Which Potency does the source give for `Cc1cccc(C)c1NC(=O)C(Cl)=C(Cl)Cl` here?
A: active: 18.4 µM

Q: With `CC(C)(C)C(=O)CNCC(=O)C(C)(C)C` as the compound, how does the Potency read?
A: inconclusive: 16.4 µM [rising, single point]

Q: Which Potency does the source give for `COc1ccc(NC(=O)C2(C)Cc3c(-c4ccc(N(C)C)cc4)ccnc3O2)cc1` (centres undefined) here?
A: inconclusive: 29.1 µM [cytotoxic, single point]

Q: Which Potency does the source give for `COc1ccccc1/C=C/C(=O)/C=C/c1ccccc1O` here?
A: inconclusive: 18.4 µM [cytotoxic, single point]

Q: For `O=S(=O)(NCC1CCCO1)c1ccc(Br)cc1` (centres undefined), which Potency is on record?
A: inactive

Q: For `COc1ccccc1N1CCN(C2CC(=O)N(C)C2=O)CC1` (centres undefined), which Potency is on record?
A: inactive

Q: Which Potency does the source give for `COc1ccc(C2CC(c3c(-c4ccccc4)c4cc(Cl)ccc4[nH]c3=O)=NN2C(=O)CCC(=O)O)cc1` (centres undefined) here?
A: inactive

Q: With `O=C(Nc1ccc(S(=O)(=O)N2CCOCC2)cc1)c1ccc([N+](=O)[O-])s1` as the compound, how does the Potency read?
A: active: 5.17 µM

Q: Which Potency does the source give for `Cn1c(=O)[nH]c(=O)c2c1nc(Br)n2CCCSc1nc2ccccc2o1` here?
A: inconclusive: 20.6 µM [cytotoxic, single point]

Q: For `CC1(C)COC(/C=C/c2cccc([N+](=O)[O-])c2)=N1`, which Potency is on record?
A: inconclusive: 10.3 µM [cytotoxic, partial curve, poor fit]

Q: Which Potency does the source give for `COC(=O)[C@]12CCCCC=C1N(Cc1cccc3ccccc13)C(=O)[C@H](CC(=O)N1CCSCC1)C2` here?
A: inconclusive: 29.1 µM [cytotoxic, single point]

Q: Which Potency does the source give for `CCn1c2ccccc2c2cc(/C=N/NC(=O)c3ccccc3)ccc21` here?
A: inconclusive: 14.6 µM [cytotoxic, partial curve, poor fit]

Q: Which Potency does the source give for `O=C1C(Cl)=C(Nc2ccccc2)C(=O)c2ccccc21` here?
A: inconclusive: 20.6 µM [cytotoxic, single point]

Q: With `NC(=O)CSc1nc2cc3c(cc2c(=O)n1CCCC(=O)NCc1ccc2c(c1)OCO2)OCO3` as the compound, how does the Potency read?
A: inconclusive: 23.1 µM [cytotoxic, partial curve, poor fit]

Q: For `O=C(N/N=C\CCc1ccccc1)c1ccco1`, which Potency is on record?
A: inconclusive: 20.6 µM [rising, partial curve, poor fit]

Q: For `COc1ccc(-c2sc(NC(C)=O)nc2-c2ccccc2)cc1`, which Potency is on record?
A: inconclusive: 16.4 µM [cytotoxic, single point]

Q: Which Potency does the source give for `Cc1cccc(C(=O)N2[C@@H](C(C)C)COc3cc(Br)ccc3S2(=O)=O)c1` here?
A: inconclusive: 32.6 µM [cytotoxic, single point]

Q: For `Cc1[nH]c2ccccc2c1/C=N/Nc1nc(Nc2ccccc2)nc(N2CCOCC2)n1`, which Potency is on record?
A: inconclusive: 29.1 µM [cytotoxic, single point]

Q: For `CCOC(=O)N1CCN(C(=O)CSCC(=O)Nc2nc(-c3ccc(OC)cc3)cs2)CC1`, which Potency is on record?
A: inconclusive: 29.1 µM [cytotoxic, single point]

Q: For `CC(=O)c1cccc(OCC(=O)Nc2cc(S(=O)(=O)N3CCOCC3)ccc2N2CCCC2)c1`, which Potency is on record?
A: inconclusive: 18.4 µM [rising, single point]

Q: With `CC(C)C[C@H]1CNC(=S)N1C[C@H]1CCCN1C[C@H](Cc1ccccc1)N1C[C@H](Cc2ccc(O)cc2)N(CC2CCCCCC2)C1=S` as the compound, how does the Potency read?
A: inconclusive: 29.1 µM [cytotoxic, single point]

Q: For `Cc1onc(-c2ccccc2)c1C(=O)Nc1nnc(C(C)(C)C)s1`, which Potency is on record?
A: inactive

Q: With `CC(C)(C)n1c(O)c2ccc(C(=O)N=NC(=O)c3ccccc3)cc2c1O` as the compound, how does the Potency read?
A: inconclusive: 20.6 µM [rising, single point]

Q: For `CC(=O)/C=C/c1ccc2c(c1)S(=O)(=O)N(C1CCCC1)[C@H]2CC(C)=O`, which Potency is on record?
A: inconclusive: 23.1 µM [cytotoxic, single point]

Q: For `COc1ccc(-c2noc(CSc3nc4ccc(C)cc4[nH]3)n2)cc1`, which Potency is on record?
A: inconclusive: 29.1 µM [cytotoxic, single point]

Q: For `COc1cccc(CNC(=O)c2sc3ncccc3c2-n2c(C)ccc2C)c1OC`, which Potency is on record?
A: inactive

Q: For `CCN=c1scc(-c2cccs2)n1/N=C/c1cc(OC)ccc1O`, which Potency is on record?
A: active: 18.4 µM

Q: For `Cc1cc(C)nc(SCC(=O)NC2=NN=C(c3ccc(Br)cc3)CS2)n1`, which Potency is on record?
A: inconclusive: 35.5 µM [cytotoxic, single point]

Q: With `COc1ccc(-c2nc3cnccn3c2NC(C)(C)CC(C)(C)C)cc1O` as the compound, how does the Potency read?
A: inconclusive: 0.731 µM [cytotoxic, single point]

Q: For `O=C(NCC(c1ccco1)N1CCCCC1)c1ccc(COc2ccccc2)cc1` (centres undefined), which Potency is on record?
A: inconclusive: 18.4 µM [cytotoxic, single point]

Q: Which Potency does the source give for `Cc1cc(C)c(C)c(S(=O)(=O)N2CCN(c3ncnc4ccccc34)CC2)c1C` here?
A: active: 18.4 µM

Q: For `O=C(CSc1nc2ccccc2s1)Nc1cc(S(=O)(=O)N2CCOCC2)ccc1O`, which Potency is on record?
A: inactive

Q: For `Cc1ccc(S(=O)(=O)c2c(CO)c(-c3ccccc3)nn2C)cc1`, which Potency is on record?
A: inconclusive: 20.6 µM [cytotoxic, single point]

Q: With `COc1ccccc1CCNC(=O)C(=O)NCC1OCCCN1S(=O)(=O)c1ccc(F)cc1C` (centres undefined) as the compound, how does the Potency read?
A: inactive

Q: With `Cc1ccc(-n2nc3c(=O)n(CC(=O)NC4CCCCCC4)nc(C)c3c2C)cc1` as the compound, how does the Potency read?
A: inconclusive: 25.9 µM [cytotoxic, partial curve, poor fit]

Q: With `O=C(CCSc1ccccc1)Nc1nc2c(s1)COc1ccccc1-2` as the compound, how does the Potency read?
A: inconclusive: 29.1 µM [cytotoxic, single point]

Q: For `CCc1ccc(NC(=O)c2cnn(-c3c(C)cccc3C)c2C2CCN(C(=O)OC(C)(C)C)CC2)cc1`, which Potency is on record?
A: inconclusive: 29.1 µM [cytotoxic, single point]

Q: Which activity change, negative = cytotoxic does the source give for `Cc1nc(CCNC(=O)Cc2ccc(F)cc2)cs1` here?
A: inconclusive: 31.6%

Q: Which Potency does the source give for `Nc1c(C(=O)Nc2ccc3c(c2)OCCO3)nnn1Cc1cccc(Cl)c1` here?
A: active: 16.4 µM

Q: Which Potency does the source give for `Cc1c(C(=O)NCc2ccc3c(c2)OCO3)oc2ccc(S(=O)(=O)N3CCCCCC3)cc12` here?
A: inactive

Q: Which Potency does the source give for `CCC(Sc1nnc2c3ccccc3n(CC)c2n1)C(=O)Nc1sc2c(c1C#N)CCCC2` (centres undefined) here?
A: inconclusive: 18.4 µM [cytotoxic, single point]

Q: Which Potency does the source give for `Cc1ccc(P(=O)(c2ccc(C)cc2)[C@@H](NC(c2ccccc2)c2ccccc2)c2ccccc2)cc1` here?
A: inconclusive: 20.6 µM [cytotoxic, single point]

Q: With `CCCc1nc(SCC(=O)c2ccc(F)cc2)c2ccccc2n1` as the compound, how does the Potency read?
A: inconclusive: 16.4 µM [cytotoxic, single point]

Q: Which Potency does the source give for `CCOC(=O)[C@]12CCCC=C1N(Cc1ccc(Cl)cc1Cl)C(=O)[C@H](CC(=O)NCc1cccc(C(F)(F)F)c1)C2` here?
A: inconclusive: 29.1 µM [cytotoxic, single point]

Q: With `Clc1ccc2nnnc(-c3ccccc3)c2c1` as the compound, how does the Potency read?
A: active: 2.59 µM

Q: Which Potency does the source give for `COc1cc(/C=C2\SC(=S)N(CCC(=O)N3CCCCC3)C2=O)cc(OC)c1OC` here?
A: inconclusive: 23.1 µM [cytotoxic, single point]

Q: For `CCCC1(c2ccccc2)NC(=O)N(CC(=O)Nc2cc(C)ccc2OC)C1=O` (centres undefined), which Potency is on record?
A: inactive

Q: Which Potency does the source give for `COc1ccc(-c2cccc(C3CC=CC4C3C(=O)N(Cc3ccccc3)C4c3ccc(C(F)(F)F)cc3)c2)cc1` (centres undefined) here?
A: inconclusive: 29.1 µM [cytotoxic, single point]

Q: For `c1ccc(Nc2nc3ccccc3[nH]2)nc1`, which Potency is on record?
A: inconclusive: 35.5 µM [cytotoxic, single point]

Q: With `CCn1nc(C)cc1C(=O)N1CCCC(C(=O)c2ccc3ccccc3c2)C1` (centres undefined) as the compound, how does the Potency read?
A: inactive

Q: Which Potency does the source give for `Nc1c(C(=O)c2ccc(F)cc2)oc2ccccc12` here?
A: inconclusive: 16.4 µM [cytotoxic, partial curve, poor fit]

Q: Which Potency does the source give for `Cc1nc2ccccc2c(=O)n1NS(C)(=O)=O` here?
A: inactive

Q: With `CCOC(=O)/C(C#N)=N/Nc1ccc(S(=O)(=O)N2CCc3ccccc32)cc1` as the compound, how does the Potency read?
A: inconclusive: 29.1 µM [cytotoxic, single point]

Q: Which Potency does the source give for `O=C(Nc1cccc(-c2csc(Nc3ccc(Cl)cc3)n2)c1)c1cc([N+](=O)[O-])cc(C(F)(F)F)c1` here?
A: inconclusive: 32.6 µM [cytotoxic, single point]

Q: For `CC(C)(C)c1nnc(NC(=O)c2cccnc2Cl)s1`, which Potency is on record?
A: inactive

Q: With `CC(C)N(Cc1nc(-c2ccc(Cl)cc2)no1)C(=O)C(c1ccccc1)c1ccccc1` as the compound, how does the Potency read?
A: inconclusive: 32.6 µM [cytotoxic, single point]

Q: Which Potency does the source give for `CCCc1c(-c2cccc(F)c2)ncn1CCc1ccccc1OC` here?
A: inconclusive: 29.1 µM [cytotoxic, single point]

Q: With `CCOc1cc(CNCc2cccnc2)ccc1OCC(=O)NC(C)(C)C` as the compound, how does the Potency read?
A: inactive

Q: For `Nc1nc(-c2ccc3c(c2)CCO3)cs1`, which Potency is on record?
A: inactive

Q: Which Potency does the source give for `O=c1[nH]c2ccccc2c(O)c1O` here?
A: inconclusive: 29.1 µM [cytotoxic, single point]

Q: For `Cc1cn([C@H]2C[C@H](O)[C@@H](CCC(=O)NCc3cccc4ccccc34)O2)c(=O)[nH]c1=O`, which Potency is on record?
A: inactive
